Experimental data reported in the supplement of paper PMC10060354, “Discovery of a small molecule ligand of FRS2 that inhibits invasion and tumor growth” (Cellular Oncology, 2022).
Single values are uncertain, as repeats are few or missing.

Sequences of proteins named here, by UniProt entry; tags and fusion partners are left off. A change or cut given only in a name is not applied to a line headed by its entry.
UniProt Q96EB1: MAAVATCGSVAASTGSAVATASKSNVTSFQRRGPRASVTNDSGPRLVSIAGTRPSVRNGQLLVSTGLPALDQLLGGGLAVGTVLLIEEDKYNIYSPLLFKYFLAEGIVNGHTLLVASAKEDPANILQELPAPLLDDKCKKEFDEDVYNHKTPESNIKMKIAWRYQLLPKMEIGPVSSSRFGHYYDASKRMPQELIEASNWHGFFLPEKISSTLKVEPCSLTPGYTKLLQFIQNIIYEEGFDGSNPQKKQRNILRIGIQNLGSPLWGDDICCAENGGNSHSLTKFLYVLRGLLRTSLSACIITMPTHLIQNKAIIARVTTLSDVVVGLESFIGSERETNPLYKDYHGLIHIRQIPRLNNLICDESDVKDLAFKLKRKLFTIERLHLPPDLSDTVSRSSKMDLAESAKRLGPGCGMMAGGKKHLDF
UniProt P78352, whole entry, looked up: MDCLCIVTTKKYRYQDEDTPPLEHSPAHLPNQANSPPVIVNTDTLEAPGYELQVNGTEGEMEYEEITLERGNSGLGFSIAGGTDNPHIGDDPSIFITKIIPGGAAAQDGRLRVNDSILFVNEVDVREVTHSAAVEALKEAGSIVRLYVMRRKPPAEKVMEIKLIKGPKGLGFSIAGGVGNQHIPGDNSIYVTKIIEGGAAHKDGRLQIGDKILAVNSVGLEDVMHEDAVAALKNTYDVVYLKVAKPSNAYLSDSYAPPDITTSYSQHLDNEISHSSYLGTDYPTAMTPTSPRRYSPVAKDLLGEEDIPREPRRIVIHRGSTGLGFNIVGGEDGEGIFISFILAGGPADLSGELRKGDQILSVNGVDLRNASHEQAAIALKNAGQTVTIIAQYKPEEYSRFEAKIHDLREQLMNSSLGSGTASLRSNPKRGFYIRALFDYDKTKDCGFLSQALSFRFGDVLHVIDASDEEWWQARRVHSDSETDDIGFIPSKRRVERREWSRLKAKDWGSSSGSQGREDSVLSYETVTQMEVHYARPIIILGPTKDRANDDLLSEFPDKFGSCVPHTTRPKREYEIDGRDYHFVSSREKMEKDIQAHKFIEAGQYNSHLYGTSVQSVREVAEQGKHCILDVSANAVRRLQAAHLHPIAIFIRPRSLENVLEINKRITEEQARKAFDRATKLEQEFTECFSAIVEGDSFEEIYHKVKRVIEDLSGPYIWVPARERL
UniProt Q9UKV3: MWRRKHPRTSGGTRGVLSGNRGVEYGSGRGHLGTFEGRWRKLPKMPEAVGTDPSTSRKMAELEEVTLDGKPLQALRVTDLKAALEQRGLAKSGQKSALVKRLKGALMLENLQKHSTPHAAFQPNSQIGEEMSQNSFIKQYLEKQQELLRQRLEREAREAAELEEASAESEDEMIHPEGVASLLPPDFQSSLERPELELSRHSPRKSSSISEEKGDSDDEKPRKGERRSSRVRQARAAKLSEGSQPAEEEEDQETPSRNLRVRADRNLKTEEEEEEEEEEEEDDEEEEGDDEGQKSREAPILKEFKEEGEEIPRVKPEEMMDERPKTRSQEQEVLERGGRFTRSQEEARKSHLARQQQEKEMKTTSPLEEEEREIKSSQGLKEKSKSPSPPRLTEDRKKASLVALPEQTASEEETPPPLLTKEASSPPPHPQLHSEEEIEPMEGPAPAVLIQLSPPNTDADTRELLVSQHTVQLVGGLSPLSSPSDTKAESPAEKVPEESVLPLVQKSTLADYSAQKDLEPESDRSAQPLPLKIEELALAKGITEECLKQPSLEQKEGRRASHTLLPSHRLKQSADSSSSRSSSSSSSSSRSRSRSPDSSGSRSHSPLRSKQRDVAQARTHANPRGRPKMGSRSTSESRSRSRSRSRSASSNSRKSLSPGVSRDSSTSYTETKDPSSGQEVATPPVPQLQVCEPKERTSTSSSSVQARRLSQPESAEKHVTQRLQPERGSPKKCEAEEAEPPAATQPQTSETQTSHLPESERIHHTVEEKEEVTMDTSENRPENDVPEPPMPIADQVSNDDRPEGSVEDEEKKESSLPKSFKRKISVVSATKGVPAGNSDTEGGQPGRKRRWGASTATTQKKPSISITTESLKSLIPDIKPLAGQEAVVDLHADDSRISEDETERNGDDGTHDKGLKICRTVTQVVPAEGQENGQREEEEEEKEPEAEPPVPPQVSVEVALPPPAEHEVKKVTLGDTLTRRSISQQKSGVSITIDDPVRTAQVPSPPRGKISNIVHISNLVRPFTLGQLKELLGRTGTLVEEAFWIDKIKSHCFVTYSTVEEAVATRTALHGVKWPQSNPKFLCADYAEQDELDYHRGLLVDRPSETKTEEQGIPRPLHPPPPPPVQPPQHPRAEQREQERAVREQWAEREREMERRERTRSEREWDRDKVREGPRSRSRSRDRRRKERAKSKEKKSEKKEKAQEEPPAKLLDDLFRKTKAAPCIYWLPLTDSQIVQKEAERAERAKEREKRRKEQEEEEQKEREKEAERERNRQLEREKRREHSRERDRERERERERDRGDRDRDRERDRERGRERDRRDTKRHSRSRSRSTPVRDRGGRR
UniProt Q99460, whole entry: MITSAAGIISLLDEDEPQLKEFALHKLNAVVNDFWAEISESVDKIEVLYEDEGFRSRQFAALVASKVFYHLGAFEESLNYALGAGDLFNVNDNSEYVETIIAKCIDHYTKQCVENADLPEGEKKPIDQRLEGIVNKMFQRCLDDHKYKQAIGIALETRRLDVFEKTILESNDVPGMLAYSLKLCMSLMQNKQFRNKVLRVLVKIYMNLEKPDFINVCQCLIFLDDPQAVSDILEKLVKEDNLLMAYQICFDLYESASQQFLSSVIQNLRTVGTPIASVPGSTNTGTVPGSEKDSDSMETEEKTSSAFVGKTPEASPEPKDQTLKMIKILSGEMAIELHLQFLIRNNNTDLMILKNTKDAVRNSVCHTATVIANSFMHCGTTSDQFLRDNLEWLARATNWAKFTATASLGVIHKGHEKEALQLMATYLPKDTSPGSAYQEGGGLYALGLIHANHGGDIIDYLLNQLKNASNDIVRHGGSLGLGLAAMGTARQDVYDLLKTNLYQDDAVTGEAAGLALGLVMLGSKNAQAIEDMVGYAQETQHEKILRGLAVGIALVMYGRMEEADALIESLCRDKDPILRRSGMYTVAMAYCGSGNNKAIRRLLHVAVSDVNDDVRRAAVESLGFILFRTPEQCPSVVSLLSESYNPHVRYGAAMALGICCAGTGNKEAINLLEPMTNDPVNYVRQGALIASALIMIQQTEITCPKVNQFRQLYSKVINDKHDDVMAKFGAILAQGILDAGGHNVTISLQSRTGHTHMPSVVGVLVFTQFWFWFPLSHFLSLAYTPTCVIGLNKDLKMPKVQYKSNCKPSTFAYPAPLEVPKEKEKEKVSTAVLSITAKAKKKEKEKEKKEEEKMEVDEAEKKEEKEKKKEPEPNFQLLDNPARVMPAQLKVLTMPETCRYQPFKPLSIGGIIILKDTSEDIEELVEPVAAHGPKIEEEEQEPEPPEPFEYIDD
UniProt Q9NUN5: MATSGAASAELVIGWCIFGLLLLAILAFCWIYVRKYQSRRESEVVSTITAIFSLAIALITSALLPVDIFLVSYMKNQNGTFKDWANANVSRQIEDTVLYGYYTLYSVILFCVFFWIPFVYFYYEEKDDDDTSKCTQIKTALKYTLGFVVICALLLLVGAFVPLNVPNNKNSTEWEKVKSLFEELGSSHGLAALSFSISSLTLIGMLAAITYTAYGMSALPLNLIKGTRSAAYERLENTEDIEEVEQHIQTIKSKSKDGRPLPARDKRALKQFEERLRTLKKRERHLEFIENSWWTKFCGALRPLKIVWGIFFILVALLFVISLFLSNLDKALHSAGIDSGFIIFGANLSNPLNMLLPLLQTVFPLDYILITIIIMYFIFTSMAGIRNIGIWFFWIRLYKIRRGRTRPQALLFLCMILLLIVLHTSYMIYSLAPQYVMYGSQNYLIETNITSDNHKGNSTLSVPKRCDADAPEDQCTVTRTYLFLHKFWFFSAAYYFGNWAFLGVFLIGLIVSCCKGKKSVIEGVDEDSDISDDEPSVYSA
UniProt Q9P0P0: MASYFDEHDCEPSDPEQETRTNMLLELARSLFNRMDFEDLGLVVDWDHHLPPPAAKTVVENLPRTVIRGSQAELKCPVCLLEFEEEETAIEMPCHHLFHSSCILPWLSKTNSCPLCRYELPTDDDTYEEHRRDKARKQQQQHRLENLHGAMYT
UniProt P22830: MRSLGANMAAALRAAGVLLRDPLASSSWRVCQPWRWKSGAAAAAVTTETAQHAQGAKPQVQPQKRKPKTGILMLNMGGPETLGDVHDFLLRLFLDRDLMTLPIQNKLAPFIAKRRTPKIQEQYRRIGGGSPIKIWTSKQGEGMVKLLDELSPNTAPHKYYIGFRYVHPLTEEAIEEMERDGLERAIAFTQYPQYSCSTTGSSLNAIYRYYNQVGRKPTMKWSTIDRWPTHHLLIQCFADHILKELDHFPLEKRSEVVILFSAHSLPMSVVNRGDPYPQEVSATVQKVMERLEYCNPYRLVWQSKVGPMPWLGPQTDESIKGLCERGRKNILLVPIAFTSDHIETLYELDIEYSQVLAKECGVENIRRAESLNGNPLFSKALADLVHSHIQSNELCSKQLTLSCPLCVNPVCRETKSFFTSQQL
UniProt Q4G176: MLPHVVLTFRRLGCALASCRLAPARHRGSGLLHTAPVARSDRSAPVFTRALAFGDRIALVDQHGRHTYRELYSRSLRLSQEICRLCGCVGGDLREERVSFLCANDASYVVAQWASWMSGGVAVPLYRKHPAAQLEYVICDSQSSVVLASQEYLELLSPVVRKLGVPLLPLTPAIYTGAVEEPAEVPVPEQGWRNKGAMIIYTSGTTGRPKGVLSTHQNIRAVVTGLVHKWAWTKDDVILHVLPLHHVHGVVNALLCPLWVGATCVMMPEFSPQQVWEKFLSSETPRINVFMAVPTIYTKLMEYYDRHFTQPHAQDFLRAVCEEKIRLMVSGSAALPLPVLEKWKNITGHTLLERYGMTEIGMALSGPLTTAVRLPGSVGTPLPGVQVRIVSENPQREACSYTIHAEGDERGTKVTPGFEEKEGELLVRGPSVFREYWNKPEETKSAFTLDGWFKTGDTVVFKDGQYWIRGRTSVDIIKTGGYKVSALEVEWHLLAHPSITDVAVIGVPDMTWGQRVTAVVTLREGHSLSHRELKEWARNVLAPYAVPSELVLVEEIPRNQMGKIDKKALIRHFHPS
UniProt P48380: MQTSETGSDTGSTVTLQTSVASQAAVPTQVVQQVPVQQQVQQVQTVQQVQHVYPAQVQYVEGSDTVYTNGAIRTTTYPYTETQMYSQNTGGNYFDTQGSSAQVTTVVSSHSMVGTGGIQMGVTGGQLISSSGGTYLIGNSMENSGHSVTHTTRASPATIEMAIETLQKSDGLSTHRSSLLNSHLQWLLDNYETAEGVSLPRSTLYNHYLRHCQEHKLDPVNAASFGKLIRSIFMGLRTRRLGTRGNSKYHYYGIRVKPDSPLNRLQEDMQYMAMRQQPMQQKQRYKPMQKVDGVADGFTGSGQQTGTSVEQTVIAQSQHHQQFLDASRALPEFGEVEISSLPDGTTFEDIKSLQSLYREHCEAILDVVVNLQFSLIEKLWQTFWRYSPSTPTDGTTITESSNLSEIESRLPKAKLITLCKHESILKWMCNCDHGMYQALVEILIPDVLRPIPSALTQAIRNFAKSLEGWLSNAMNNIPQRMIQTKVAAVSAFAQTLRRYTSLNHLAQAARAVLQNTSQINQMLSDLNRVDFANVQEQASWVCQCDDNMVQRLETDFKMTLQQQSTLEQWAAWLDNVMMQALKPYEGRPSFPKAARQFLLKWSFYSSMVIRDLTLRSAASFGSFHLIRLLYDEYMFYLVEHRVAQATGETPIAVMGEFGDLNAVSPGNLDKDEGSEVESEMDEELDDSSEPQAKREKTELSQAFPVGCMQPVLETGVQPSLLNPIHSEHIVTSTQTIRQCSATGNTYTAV
UniProt P42696: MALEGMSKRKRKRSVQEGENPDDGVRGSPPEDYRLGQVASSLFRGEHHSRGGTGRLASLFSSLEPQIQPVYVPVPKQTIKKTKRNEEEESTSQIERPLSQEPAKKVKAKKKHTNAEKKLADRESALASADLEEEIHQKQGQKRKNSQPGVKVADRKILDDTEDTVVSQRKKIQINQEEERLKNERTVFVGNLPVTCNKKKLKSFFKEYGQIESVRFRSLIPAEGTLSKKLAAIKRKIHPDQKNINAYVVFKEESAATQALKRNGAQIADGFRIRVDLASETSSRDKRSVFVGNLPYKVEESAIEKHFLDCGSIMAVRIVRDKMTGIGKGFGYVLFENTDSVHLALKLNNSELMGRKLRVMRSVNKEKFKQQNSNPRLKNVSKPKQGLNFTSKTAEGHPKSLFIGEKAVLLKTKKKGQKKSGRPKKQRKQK
UniProt Q96FF9: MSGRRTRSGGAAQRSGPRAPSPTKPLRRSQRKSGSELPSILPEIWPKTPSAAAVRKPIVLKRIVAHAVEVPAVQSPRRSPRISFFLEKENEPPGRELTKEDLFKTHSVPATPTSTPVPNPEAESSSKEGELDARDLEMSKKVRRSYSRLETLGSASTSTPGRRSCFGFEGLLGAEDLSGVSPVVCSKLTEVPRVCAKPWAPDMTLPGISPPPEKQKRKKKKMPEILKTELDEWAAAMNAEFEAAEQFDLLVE

Compound: [O-][N+](C(C1=C(C(O)=C2)NC(C(C=C3)=CC=C3Cl)C4C1C=CC4)=C2Cl)=O
Experiment: melting temperature shift (compound 7 minus DMSO); higher = compound stabilises the protein
Conditions: 10 µM
Method: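 Thermal proteome profiling (TMT mass spectrometry) in intact DAOY medulloblastoma cells or DAOY lysates treated with 10 µM compound 7 or DMSO, heated at 10 temperatures from 40.5 to 73.8 °C for 3 min. Melting curves were fitted with the Bioconductor TPP package, and the melting point difference between compound and vehicle is reported per protein (single curve per condition).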

[1] = system: DAOY cell lysate, treatment time: 20 min, 4 °C
[2] = system: intact DAOY cells, treatment time: 90 min, 37 °C

Target: CTCF (UniProt P49711)
- melting temperature shift [1]: 0.766 °C
- melting temperature shift [2]: -1.3 °C

Target: SEC24C (UniProt P53992)
- melting temperature shift [1]: -0.464 °C
- melting temperature shift [2]: 0.0933 °C

Target: ELMO2 (UniProt Q96JJ3)
- melting temperature shift [1]: -0.0123 °C
- melting temperature shift [2]: -0.689 °C

Target: EIF4G2 (UniProt P78344)
- melting temperature shift [1]: -0.338 °C
- melting temperature shift [2]: -0.821 °C

Target: INPP5F (UniProt Q9Y2H2)
- melting temperature shift [1]: -0.846 °C

Target: UniProt P27216
- melting temperature shift [2]: -0.0232 °C

Target: UGGT1 (UniProt Q9NYU2)
- melting temperature shift [1]: 0.563 °C
- melting temperature shift [2]: 0.324 °C

Target: ELP4 (UniProt Q96EB1)
- melting temperature shift [1]: -0.0134 °C
- melting temperature shift [2]: 1.28 °C

Target: HECTD3 (UniProt Q5T447)
- melting temperature shift [1]: -0.102 °C
- melting temperature shift [2]: -0.653 °C

Target: NDUFA9 (UniProt Q16795)
- melting temperature shift [1]: 1.39 °C
- melting temperature shift [2]: -0.847 °C

Target: TRIM44 (UniProt Q96DX7)
- melting temperature shift [1]: 3.99 °C

Target: UniProt Q8IUF1
- melting temperature shift [1]: -0.72 °C

Target: FERMT2 (UniProt Q96AC1)
- melting temperature shift [1]: -0.733 °C
- melting temperature shift [2]: -0.414 °C

Target: UniProt P78352
- melting temperature shift [2]: -0.0963 °C

Target: CPSF1 (UniProt Q10570)
- melting temperature shift [1]: -0.372 °C
- melting temperature shift [2]: 0.398 °C

Target: MED6 (UniProt O75586)
- melting temperature shift [1]: -1.1 °C
- melting temperature shift [2]: 0.629 °C

Target: HNRNPA2B1 (UniProt P22626)
- melting temperature shift [1]: 0.975 °C
- melting temperature shift [2]: -0.806 °C

Target: GTF2H3 (UniProt Q13889)
- melting temperature shift [1]: 0.126 °C

Target: STIP1 (UniProt P31948)
- melting temperature shift [1]: -2.13 °C
- melting temperature shift [2]: 0.323 °C

Target: MATR3 (UniProt P43243)
- melting temperature shift [1]: 0.817 °C
- melting temperature shift [2]: 0.369 °C

Target: ACIN1 (UniProt Q9UKV3)
- melting temperature shift [1]: 0.852 °C
- melting temperature shift [2]: 3.09 °C

Target: EIF5B (UniProt O60841)
- melting temperature shift [1]: 0.0759 °C
- melting temperature shift [2]: -0.283 °C

Target: PGM2 (UniProt Q96G03)
- melting temperature shift [1]: -0.425 °C
- melting temperature shift [2]: -0.227 °C

Target: RDH14 (UniProt Q9HBH5)
- melting temperature shift [1]: -1.03 °C
- melting temperature shift [2]: 0.103 °C

Target: EIF6 (UniProt P56537)
- melting temperature shift [1]: -0.375 °C
- melting temperature shift [2]: 0.815 °C

Target: USP28 (UniProt Q96RU2)
- melting temperature shift [1]: -0.782 °C
- melting temperature shift [2]: -1.12 °C

Target: HNRNPC (UniProt P07910)
- melting temperature shift [1]: 1.49 °C
- melting temperature shift [2]: -0.613 °C

Target: SRGAP1 (UniProt Q7Z6B7)
- melting temperature shift [1]: 4.3 °C
- melting temperature shift [2]: -0.763 °C

Target: UniProt Q53S08
- melting temperature shift [1]: 1.25 °C

Target: PRKAA2 (UniProt P54646)
- melting temperature shift [1]: -0.309 °C
- melting temperature shift [2]: 3.34 °C

Target: PSMD1 (UniProt Q99460)
- melting temperature shift [1]: -0.684 °C
- melting temperature shift [2]: -1.22 °C

Target: DDX49 (UniProt Q9Y6V7)
- melting temperature shift [1]: 0.151 °C
- melting temperature shift [2]: -1.11 °C

Target: PKCgamma (UniProt P05129)
- melting temperature shift [2]: -1.8 °C

Target: UTRN (UniProt P46939)
- melting temperature shift [1]: 0.375 °C
- melting temperature shift [2]: 0.259 °C

Target: AP3B1 (UniProt O00203)
- melting temperature shift [1]: -0.398 °C
- melting temperature shift [2]: -1.11 °C

Target: WDR74 (UniProt Q6RFH5)
- melting temperature shift [1]: 0.0784 °C
- melting temperature shift [2]: 0.338 °C

Target: UniProt Q12791
- melting temperature shift [1]: 1.42 °C
- melting temperature shift [2]: -0.922 °C

Target: NOTCH2 (UniProt Q04721)
- melting temperature shift [1]: 1.17 °C
- melting temperature shift [2]: 1.74 °C

Target: UniProt Q14849
- melting temperature shift [1]: 1.84 °C

Target: CCDC59 (UniProt Q9P031)
- melting temperature shift [1]: 0.0571 °C

Target: LMBRD1 (UniProt Q9NUN5)
- melting temperature shift [1]: 3.8 °C

Target: RNF181 (UniProt Q9P0P0)
- melting temperature shift [1]: -4.8 °C

Target: UniProt Q5BJH2
- melting temperature shift [1]: 3.85 °C
- melting temperature shift [2]: 0.878 °C

Target: DDX41 (UniProt Q9UJV9)
- melting temperature shift [1]: 0.118 °C

Target: IQGAP3 (UniProt Q86VI3)
- melting temperature shift [1]: -0.777 °C
- melting temperature shift [2]: -0.0404 °C

Target: STUB1 (UniProt Q9UNE7)
- melting temperature shift [1]: -0.52 °C
- melting temperature shift [2]: -0.328 °C

Target: UBR4 (UniProt Q5T4S7)
- melting temperature shift [1]: -0.557 °C
- melting temperature shift [2]: -0.403 °C

Target: RHBDD2 (UniProt Q6NTF9)
- melting temperature shift [1]: -3.02 °C

Target: TXNDC17 (UniProt Q9BRA2)
- melting temperature shift [1]: -1.35 °C
- melting temperature shift [2]: 0.0743 °C

Target: BNIP2 (UniProt Q12982)
- melting temperature shift [1]: 1.06 °C
- melting temperature shift [2]: -0.493 °C

Target: SMCHD1 (UniProt A6NHR9)
- melting temperature shift [1]: -1.01 °C
- melting temperature shift [2]: -3.35 °C

Target: CSNK2B (UniProt P67870)
- melting temperature shift [1]: -0.172 °C
- melting temperature shift [2]: -0.663 °C

Target: UniProt O15020
- melting temperature shift [1]: -0.618 °C
- melting temperature shift [2]: 1.26 °C

Target: PDCD4 (UniProt Q53EL6)
- melting temperature shift [1]: -0.563 °C
- melting temperature shift [2]: -1.91 °C

Target: CDC23 (UniProt Q9UJX2)
- melting temperature shift [1]: 0.216 °C
- melting temperature shift [2]: 0.286 °C

Target: METAP1 (UniProt P53582)
- melting temperature shift [1]: -0.761 °C
- melting temperature shift [2]: -3.1 °C

Target: LUC7L3 (UniProt O95232)
- melting temperature shift [1]: -0.135 °C
- melting temperature shift [2]: -0.223 °C

Target: KSR1 (UniProt Q8IVT5)
- melting temperature shift [1]: -1.63 °C
- melting temperature shift [2]: -2.54 °C

Target: MRPS6 (UniProt P82932)
- melting temperature shift [1]: 0.559 °C
- melting temperature shift [2]: -2.31 °C

Target: UniProt P48454
- melting temperature shift [1]: -0.507 °C
- melting temperature shift [2]: 0.222 °C

Target: OPHN1 (UniProt O60890)
- melting temperature shift [1]: 0.299 °C

Target: RNASEL (UniProt Q05823)
- melting temperature shift [2]: -1.35 °C

Target: FECH (UniProt P22830)
- melting temperature shift [1]: -1.18 °C
- melting temperature shift [2]: -0.361 °C

Target: UBXN6 (UniProt Q9BZV1)
- melting temperature shift [1]: 0.529 °C

Target: LONP1 (UniProt P36776)
- melting temperature shift [1]: 0.754 °C
- melting temperature shift [2]: -1.17 °C

Target: QSER1 (UniProt Q2KHR3)
- melting temperature shift [1]: -0.442 °C

Target: DPP7 (UniProt Q9UHL4)
- melting temperature shift [2]: 1.39 °C

Target: ACSF3 (UniProt Q4G176)
- melting temperature shift [1]: -1.94 °C

Target: CBX4 (UniProt O00257)
- melting temperature shift [1]: -0.429 °C

Target: AIFM2 (UniProt Q9BRQ8)
- melting temperature shift [1]: -1.09 °C
- melting temperature shift [2]: 2.31 °C

Target: GTF2B (UniProt Q00403)
- melting temperature shift [1]: 0.838 °C
- melting temperature shift [2]: -1.19 °C

Target: UniProt Q8WUY9
- melting temperature shift [1]: -0.428 °C

Target: LRCH3 (UniProt Q96II8)
- melting temperature shift [1]: -1.15 °C
- melting temperature shift [2]: 3.46 °C

Target: TTF2 (UniProt Q9UNY4)
- melting temperature shift [1]: -0.427 °C
- melting temperature shift [2]: 0.457 °C

Target: UniProt P48380
- melting temperature shift [2]: -0.893 °C

Target: UniProt P24043
- melting temperature shift [2]: -3.75 °C

Target: ESYT1 (UniProt Q9BSJ8)
- melting temperature shift [1]: 0.951 °C
- melting temperature shift [2]: -0.812 °C

Target: PPM1F (UniProt P49593)
- melting temperature shift [1]: -0.975 °C
- melting temperature shift [2]: -0.0855 °C

Target: UniProt Q13487
- melting temperature shift [2]: 0.0274 °C

Target: SNX6 (UniProt Q9UNH7)
- melting temperature shift [1]: -0.329 °C
- melting temperature shift [2]: -1.58 °C

Target: UniProt Q13325
- melting temperature shift [1]: -0.277 °C
- melting temperature shift [2]: -0.708 °C

Target: RBM34 (UniProt P42696)
- melting temperature shift [1]: 1.16 °C

Target: CDR2 (UniProt Q01850)
- melting temperature shift [1]: -1.72 °C

Target: UniProt Q9NU02
- melting temperature shift [2]: -0.225 °C

Target: UniProt Q96FF9
- melting temperature shift [1]: 0.746 °C
